# Substitutions are numbered along the chain they refer to. These are yes or no findings as the source states them, for the method shown. Some results given as binding are weak or reduced against the parent protein; the word gives no strength.
# B1: DR5TAA-0019 (antibody, V domains shown)
# VH: QSVEESGGRLVTPGTPLTLTCTVSGFSLSNYAMSWVRQAPGKGLEWIGIISSSGTTYYASWAKGRFTISKTSTTVDLKVTSPTTEDTATYFCARETYYGYSYAAGLWGPGTLVTVSS
# VL: ALVMTQTPSSVSAAVGGTVTINCQASQNIYSNLAWFQQKPGQPPKLLIYETSKLASGVPSRFSGSGSGTEFTLTISDLECDDAATYYCQSSWHSISTDCAFGGGTEVVVKG
# B2: DR5TAA-0005 (antibody, V domains shown)
# VH: QSLEESGGRLVTPGTPLTLTCTASGFSLSSAYMSWVRQAPGKGLEWIGYIYSGSGSTWYASWVKGRFTISKTSTTVDLKITSPTTEDTATYFCARGYSTMGDLWGPGTLVTVSS
# VL: QVLTQTPSPVSAAVGGTVTINCQASQSVYNNRLAWYQQKPGQPPKLLIYLASTLASGVPSRFKGSGSGTQFTLTISDLQCDDAATYYCAGGYSGNINAFGGGTEVVVKG
# B3: DR5TAA-0006 (antibody, V domains shown)
# VH: QSLEESGGRLVTPGTPLTLTCTASGFSLSSNHMSWVRQAPGKGLEWIGYIYAGSGSAYYASWAKGRFTISRTSTTVDLKMTSLTTEDTATYFCAGDAGSSYWEFNLWGPGTLVTVSS
# VL: LVMTQTPSSTSEPVGGTVTIKCQASQSIGSSLSWYQQKPGQPPKLLIYHASTLASGVPSRFSGSRSGIQTTLTISGVQCDDAATYYCLGVADARRDDGFAFGGGTEVVVKG
# B4: DR5TAA-0013 (antibody, V domains shown)
# VH: B3 VH with S27T, L28I, N31Y, G55A, A57T, Y58W, A63V, R71K, G95R
# VL: LVMTQTPSSTSEPVGGTVTIKCQASQSIGSSLSWYQQTPGQPPKLLIYTASSLASSVPKRFSGSRSGTQFTLTISGVQCADAATYYCLGIDDVRRDDGFAFGGGTEVVVKG
# B5: DR5TAA-0010 (antibody, V domains shown)
# VH: QSLEESGGRLVKPDETLTLTCTVSGFSLSSNAISWVRQAPGMGLEWIGIIGSSGYTYYASWAKGRFTVSKTSTTVDLEIASPTTEDTATYFCARGYSGASDYSFNLWGPGTLVTVSS
# VL: AYDMTQTPDSVEVAVGGTVTIKCQASQTIGDALAWYQQKPGQRPNLLIYRTSTLASGVPSRFSGSGSGTHFTLTISGVECADAATYYCQQGATYNNVLNTFGGGTEVVVKG
# B6: DR5TAA-0016 (antibody, V domains shown)
# VH: QSLEESGGRLVKPDETLTLTCTVSGFSLNNYAMSWVRQAPGKGLEWIGMINKYGTKYYATWTKGRATISKTSTTLDLEITSPTTEDTATYFCARVRYAGDDYAEWLDVWGQGILVTVSS
# VL: DIVMTQTASPVSAAVGGTVTINCQASQSISSSYVSWYQQKPGQPPKLLIYKASTLASGVPSRFSGSGSGTQLSLTIRGVQCDDAATYYCLYGYSDVSSSEYVFGGGTEVVVRG
# B7: DR5TAA-0011 (antibody, V domains shown)
# VH: QSVEESGGRLVTPGTPLTLTCTVSGFSISRYAMIWVRQAPGEGLEYIGFITSDSSAYYASWAKGRFTISKTSTTVDLKMTSPTTEDTATYFCARYTYSDGTDLWGPGTLVTVSS
# VL: DIVMTQTPASVSEPVGGTVTIKCQASQSISTYLSWYQQKPGQPPKRLIYKASTLASGVPSRFKGSGSGTDFTLTIRDLECADAATYYCQPNSGIATYGAAFGGGTEVVVKG
# Biological target: Cynom. DR5 (ECD)-AcTev-Fc-Avi (cynomolgus)
# Experiment: binding ELISA
row,binding,Binder
1,binds,B1
2,binds,B2
3,binds,B3
4,binds,B4
5,binds,B5
6,binds,B6
7,binds,B7
